Laboratory results published in PMC9667534 (ACS Pharmacology & Translational Science, 2022).
Some peptides are written in HELM: one residue between dots, names in brackets for other building blocks, links after the first $.

Assay: peptide synthesis
Conditions: conjugation step

Substance “PEPTIDE1{D.[Arg(carb)].V.Y.I.H.P.F}$$$$V2.0” has a conjugation yield of 13%.
